Laboratory results taken from the supplement of paper PMC10849652.
The list shows a part of the results.

Protein sequences, listed by entry. Tags and fused reporters are not part of them. Lines headed by an entry give the natural chain unless they say otherwise; changes in a name come on top.
UniProt Q49B96: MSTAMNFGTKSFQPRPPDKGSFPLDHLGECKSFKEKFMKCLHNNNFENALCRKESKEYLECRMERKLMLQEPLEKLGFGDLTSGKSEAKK
UniProt Q99829: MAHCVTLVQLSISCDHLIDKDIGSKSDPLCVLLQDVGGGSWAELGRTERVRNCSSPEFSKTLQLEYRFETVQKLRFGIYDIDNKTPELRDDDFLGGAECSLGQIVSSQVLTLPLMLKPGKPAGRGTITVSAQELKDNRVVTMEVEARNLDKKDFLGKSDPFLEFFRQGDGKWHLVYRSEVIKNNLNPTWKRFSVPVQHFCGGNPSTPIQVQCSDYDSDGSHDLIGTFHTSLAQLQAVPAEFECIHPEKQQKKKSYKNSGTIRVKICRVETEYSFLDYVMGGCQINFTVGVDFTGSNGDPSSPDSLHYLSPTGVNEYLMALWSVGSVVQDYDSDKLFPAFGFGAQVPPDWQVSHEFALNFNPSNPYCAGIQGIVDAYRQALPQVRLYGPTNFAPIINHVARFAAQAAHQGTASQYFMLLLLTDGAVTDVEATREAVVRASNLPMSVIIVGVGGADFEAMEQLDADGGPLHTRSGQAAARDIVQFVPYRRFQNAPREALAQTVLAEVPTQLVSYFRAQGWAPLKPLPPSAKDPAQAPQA
UniProt Q9ULV4, whole entry, looked up: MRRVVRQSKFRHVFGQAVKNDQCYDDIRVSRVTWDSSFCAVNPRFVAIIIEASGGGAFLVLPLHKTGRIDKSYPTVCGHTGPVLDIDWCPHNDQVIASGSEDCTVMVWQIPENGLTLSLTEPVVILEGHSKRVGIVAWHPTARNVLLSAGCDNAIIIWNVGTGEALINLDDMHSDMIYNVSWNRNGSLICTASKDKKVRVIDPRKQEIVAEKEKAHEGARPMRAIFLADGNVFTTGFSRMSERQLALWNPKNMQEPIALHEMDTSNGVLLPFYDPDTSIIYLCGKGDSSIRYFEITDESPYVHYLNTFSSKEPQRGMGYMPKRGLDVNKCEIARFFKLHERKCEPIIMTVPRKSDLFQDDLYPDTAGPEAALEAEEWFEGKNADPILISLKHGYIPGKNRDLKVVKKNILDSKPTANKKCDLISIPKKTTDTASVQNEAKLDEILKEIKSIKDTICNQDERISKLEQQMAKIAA
UniProt Q8IYK4: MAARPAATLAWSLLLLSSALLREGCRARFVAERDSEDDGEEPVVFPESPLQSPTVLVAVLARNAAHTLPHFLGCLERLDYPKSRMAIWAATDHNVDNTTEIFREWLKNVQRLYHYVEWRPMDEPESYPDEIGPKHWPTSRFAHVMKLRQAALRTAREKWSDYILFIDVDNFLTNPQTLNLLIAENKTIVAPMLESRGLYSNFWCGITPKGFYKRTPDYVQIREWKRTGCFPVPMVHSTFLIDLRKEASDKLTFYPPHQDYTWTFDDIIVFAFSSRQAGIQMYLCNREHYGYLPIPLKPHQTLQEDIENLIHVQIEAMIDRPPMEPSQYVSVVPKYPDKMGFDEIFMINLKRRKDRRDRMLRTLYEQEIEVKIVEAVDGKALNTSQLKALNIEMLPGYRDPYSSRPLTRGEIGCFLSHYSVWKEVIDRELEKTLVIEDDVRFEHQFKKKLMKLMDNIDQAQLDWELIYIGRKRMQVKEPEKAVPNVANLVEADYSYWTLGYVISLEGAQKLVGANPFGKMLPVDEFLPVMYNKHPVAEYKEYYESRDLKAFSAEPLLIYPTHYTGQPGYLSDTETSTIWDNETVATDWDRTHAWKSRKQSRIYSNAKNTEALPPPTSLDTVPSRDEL
UniProt Q14019: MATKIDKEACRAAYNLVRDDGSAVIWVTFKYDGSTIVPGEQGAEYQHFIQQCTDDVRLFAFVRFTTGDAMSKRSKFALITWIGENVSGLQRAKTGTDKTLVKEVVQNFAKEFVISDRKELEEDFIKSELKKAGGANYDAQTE
UniProt Q86X83, whole entry, looked up: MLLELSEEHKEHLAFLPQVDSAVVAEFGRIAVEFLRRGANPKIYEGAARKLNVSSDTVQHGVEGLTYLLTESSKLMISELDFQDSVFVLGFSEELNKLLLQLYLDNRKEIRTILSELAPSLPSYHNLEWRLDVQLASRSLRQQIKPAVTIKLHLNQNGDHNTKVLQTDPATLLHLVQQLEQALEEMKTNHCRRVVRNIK
UniProt Q9Y6G5, whole entry, looked up: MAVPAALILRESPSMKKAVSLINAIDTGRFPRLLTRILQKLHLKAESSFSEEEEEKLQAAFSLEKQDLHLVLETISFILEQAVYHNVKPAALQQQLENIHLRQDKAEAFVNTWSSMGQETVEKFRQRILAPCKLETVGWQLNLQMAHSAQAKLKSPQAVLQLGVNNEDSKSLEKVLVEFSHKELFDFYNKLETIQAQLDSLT
UniProt Q9Y6N1: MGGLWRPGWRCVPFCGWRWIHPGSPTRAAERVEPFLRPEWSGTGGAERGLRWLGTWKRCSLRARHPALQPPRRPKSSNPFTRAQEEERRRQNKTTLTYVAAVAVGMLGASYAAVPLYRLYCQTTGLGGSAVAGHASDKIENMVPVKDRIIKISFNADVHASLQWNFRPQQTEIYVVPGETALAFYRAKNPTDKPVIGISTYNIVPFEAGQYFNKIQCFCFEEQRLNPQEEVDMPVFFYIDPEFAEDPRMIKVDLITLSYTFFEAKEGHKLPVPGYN
UniProt Q5TZA2: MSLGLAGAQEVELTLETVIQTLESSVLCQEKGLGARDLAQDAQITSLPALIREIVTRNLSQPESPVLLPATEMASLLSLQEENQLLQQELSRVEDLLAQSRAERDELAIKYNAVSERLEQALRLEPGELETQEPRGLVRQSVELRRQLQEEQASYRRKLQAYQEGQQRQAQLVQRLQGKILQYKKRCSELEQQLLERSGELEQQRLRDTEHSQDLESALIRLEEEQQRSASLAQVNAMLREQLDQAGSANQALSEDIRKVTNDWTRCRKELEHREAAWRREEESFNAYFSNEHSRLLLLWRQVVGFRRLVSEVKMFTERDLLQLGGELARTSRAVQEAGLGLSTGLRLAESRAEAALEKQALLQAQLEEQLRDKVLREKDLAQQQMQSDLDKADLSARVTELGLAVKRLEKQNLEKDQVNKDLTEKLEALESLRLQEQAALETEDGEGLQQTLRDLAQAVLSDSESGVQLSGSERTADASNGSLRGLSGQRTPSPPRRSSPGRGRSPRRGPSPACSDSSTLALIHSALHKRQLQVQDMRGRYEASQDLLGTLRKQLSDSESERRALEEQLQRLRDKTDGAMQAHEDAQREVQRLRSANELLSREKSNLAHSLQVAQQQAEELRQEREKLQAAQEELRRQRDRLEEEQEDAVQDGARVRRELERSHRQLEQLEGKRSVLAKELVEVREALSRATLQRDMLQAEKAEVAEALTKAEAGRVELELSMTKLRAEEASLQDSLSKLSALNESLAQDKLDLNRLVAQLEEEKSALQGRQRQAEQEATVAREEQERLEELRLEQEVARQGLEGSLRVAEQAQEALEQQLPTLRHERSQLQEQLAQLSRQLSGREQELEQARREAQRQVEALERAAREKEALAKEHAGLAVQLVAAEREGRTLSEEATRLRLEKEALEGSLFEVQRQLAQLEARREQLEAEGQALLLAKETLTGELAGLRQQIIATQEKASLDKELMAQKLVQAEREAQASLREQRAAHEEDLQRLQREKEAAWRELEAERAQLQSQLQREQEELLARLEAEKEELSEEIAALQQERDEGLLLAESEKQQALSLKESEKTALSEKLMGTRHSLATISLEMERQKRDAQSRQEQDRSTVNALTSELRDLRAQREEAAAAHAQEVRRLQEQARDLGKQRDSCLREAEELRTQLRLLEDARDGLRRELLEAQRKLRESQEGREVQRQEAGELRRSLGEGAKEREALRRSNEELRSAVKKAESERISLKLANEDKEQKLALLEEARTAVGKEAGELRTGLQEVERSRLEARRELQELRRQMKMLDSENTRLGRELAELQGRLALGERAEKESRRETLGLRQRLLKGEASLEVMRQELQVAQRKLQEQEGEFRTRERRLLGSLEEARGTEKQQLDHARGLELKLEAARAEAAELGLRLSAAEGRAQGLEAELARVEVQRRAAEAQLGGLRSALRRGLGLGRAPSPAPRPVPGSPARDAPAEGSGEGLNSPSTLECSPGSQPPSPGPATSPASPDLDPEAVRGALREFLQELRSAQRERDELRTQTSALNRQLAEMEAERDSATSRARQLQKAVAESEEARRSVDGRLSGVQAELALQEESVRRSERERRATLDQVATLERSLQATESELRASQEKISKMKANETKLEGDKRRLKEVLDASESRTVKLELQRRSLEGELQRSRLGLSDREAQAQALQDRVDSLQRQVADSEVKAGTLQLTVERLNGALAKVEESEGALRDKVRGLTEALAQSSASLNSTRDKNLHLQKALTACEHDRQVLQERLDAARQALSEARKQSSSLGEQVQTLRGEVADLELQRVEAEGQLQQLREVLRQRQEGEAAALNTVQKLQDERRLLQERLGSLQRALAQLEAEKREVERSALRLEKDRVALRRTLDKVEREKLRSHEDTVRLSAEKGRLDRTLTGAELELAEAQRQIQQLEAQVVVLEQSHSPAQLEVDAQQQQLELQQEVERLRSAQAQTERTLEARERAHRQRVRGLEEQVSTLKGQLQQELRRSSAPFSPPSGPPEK
UniProt Q7KZN9: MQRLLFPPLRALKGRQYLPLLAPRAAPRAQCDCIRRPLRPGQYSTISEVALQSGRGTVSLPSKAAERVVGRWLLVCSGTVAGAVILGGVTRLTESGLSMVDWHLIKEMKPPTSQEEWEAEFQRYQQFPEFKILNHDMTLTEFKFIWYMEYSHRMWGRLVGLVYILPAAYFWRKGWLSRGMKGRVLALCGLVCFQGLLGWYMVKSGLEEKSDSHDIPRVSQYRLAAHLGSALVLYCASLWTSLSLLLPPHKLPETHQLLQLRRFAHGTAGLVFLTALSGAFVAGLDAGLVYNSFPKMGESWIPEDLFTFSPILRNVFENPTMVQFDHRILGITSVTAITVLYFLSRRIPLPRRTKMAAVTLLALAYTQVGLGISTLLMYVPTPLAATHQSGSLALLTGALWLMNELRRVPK
UniProt P61201: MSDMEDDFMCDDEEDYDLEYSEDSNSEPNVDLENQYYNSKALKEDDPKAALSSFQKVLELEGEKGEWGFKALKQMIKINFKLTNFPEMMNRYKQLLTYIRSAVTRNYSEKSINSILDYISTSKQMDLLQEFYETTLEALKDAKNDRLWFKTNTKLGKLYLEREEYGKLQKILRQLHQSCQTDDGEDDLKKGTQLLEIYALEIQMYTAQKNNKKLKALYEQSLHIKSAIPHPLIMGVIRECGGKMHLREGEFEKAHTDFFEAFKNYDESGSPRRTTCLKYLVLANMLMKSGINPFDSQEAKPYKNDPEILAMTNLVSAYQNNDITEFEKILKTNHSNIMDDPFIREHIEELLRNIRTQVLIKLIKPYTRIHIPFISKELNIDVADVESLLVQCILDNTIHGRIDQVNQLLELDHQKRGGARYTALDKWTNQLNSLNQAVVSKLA
UniProt P50416: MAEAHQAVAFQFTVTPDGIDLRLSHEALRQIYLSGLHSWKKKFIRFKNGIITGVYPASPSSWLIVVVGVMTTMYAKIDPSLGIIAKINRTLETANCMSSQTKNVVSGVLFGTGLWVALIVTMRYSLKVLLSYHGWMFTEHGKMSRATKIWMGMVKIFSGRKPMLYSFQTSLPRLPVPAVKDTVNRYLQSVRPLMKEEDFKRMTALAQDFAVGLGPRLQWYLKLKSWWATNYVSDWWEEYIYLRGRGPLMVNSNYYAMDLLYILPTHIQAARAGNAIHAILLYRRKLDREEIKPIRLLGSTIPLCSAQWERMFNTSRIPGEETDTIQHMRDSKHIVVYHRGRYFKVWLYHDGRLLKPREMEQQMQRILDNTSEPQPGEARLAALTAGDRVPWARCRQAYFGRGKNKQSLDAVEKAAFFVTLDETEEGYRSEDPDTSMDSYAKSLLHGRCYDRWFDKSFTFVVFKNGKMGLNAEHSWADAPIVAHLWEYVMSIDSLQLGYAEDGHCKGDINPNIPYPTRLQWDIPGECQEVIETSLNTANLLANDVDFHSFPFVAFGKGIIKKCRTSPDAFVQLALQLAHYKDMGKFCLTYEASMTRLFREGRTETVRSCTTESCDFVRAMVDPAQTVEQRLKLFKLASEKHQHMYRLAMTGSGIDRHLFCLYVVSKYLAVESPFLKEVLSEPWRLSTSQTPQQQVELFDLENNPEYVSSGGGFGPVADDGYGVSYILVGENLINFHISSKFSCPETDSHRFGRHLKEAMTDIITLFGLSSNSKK
UniProt Q08257: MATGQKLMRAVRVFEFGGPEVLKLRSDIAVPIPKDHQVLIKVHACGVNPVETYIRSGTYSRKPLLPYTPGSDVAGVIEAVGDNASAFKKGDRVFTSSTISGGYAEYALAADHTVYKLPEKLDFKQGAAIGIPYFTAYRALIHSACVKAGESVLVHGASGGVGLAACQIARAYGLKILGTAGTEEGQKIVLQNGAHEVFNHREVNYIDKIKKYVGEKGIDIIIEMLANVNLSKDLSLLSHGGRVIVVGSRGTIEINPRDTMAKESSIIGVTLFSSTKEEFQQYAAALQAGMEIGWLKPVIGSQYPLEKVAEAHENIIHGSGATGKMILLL

Columns and labels:
Assay in all cases: log2 fold change, soluble protein after heating vs DMSO (PISA); higher = thermal stabilisation; K562 cells, 10 uM, 30 min; active = over 0.2 and 3.5 SD of the protein, either way, in both replicates (recomputed)
[1] = compound: CS(=O)(=O)c1ccc(-c2cnc(N)c(C(=O)Nc3ccccc3)n2)cc1
Outline: (§1)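 K562 cells (2×10^6 cells/mL) were treated with 10 μM compound for 30 min, and aliquots were heated for 3 min over 48°C-58°C. Pooled aliquots were extracted in PBS with 0.5% NP-40 at 4°C, and the supernatant after 21,000xg for 90 min was measured by TMTpro 16plex LC-MS/MS with channel sums equalised. Reported thermal stability, relative to control samples and from duplicates, is a log2 fold change.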

crizotinib = compound: C[C@@H](Oc1cc(-c2cnn(C3CCNCC3)c2)cnc1N)c1c(Cl)ccc(F)c1Cl [crizotinib]
Outline: as §1

[2] = compound: C[C@@H]1COCCN1C2=NC(=NC(=C2)C3(CC3)S(=O)(=O)C)C4=C5C=CNC5=CC=C4
Outline: as §1

[3] = compound: C[C@H](C1=CC=C(C=C1)C(=O)NC2=C3C=CNC3=NC=C2)N
Outline: as §1

duvelisib = compound: C[C@H](Nc1ncnc2nc[nH]c12)c1cc2cccc(Cl)c2c(=O)n1-c1ccccc1 [duvelisib]
Outline: as §1

gandotinib = compound: Cc1cc(Nc2cc(CN3CCOCC3)c3nc(C)c(Cc4ccc(Cl)cc4F)n3n2)n[nH]1 [gandotinib]
Outline: as §1

tozasertib = compound: Cc1cc(Nc2cc(N3CCN(C)CC3)nc(Sc3ccc(NC(=O)C4CC4)cc3)n2)n[nH]1 [tozasertib]
Outline: as §1

[4] = compound: Cc1cc(SCc2sc(-c3ccc(C(F)(F)F)cc3)nc2C)ccc1OCC(=O)O
Outline: as §1

doramapimod = compound: Cc1ccc(-n2nc(C(C)(C)C)cc2NC(=O)Nc2ccc(OCCN3CCOCC3)c3ccccc23)cc1 [doramapimod]
Outline: as §1

ispinesib = compound: Cc1ccc(C(=O)N(CCCN)[C@@H](c2nc3cc(Cl)ccc3c(=O)n2Cc2ccccc2)C(C)C)cc1 [ispinesib]
Outline: as §1

bafetinib = compound: Cc1ccc(NC(=O)c2ccc(CN3CC[C@H](N(C)C)C3)c(C(F)(F)F)c2)cc1Nc1nccc(-c2cncnc2)n1 [bafetinib]
Outline: as §1

[5] = compound: Cc1cccc(CC(=O)N2CCc3c2ccc(-c2cn(C)c4ncnc(N)c24)c3F)n1
Outline: as §1

nilotinib = compound: Cc1cn(-c2cc(NC(=O)c3ccc(C)c(Nc4nccc(-c5cccnc5)n4)c3)cc(C(F)(F)F)c2)cn1 [nilotinib]
Outline: as §1

[6] = compound: Cc1nc(Nc2n[nH]c3c2CN(C(=O)N[C@H](CN(C)C)c2ccccc2)C3(C)C)c2sccc2n1
Outline: as §1

dasatinib = compound: Cc1nc(Nc2ncc(C(=O)Nc3c(C)cccc3Cl)s2)cc(N2CCN(CCO)CC2)n1 [dasatinib]
Outline: as §1

[7] = compound: Cc1ncc(-c2ccnc(Nc3ccc(S(C)(=O)=O)cc3)n2)n1C(C)C
Outline: as §1

[8] = compound: Cn1cc(-c2ccc3c(c2)CCN3C(=O)Cc2cccc(C(F)(F)F)c2)c2c(N)ncnc21
Outline: as §1

[9] = compound: Cn1cc(-c2ccc3nnc(C(F)(F)c4ccc5ncccc5c4)n3n2)cn1
Outline: as §1

tipifarnib = compound: Cn1cncc1[C@@](N)(c1ccc(Cl)cc1)c1ccc2c(c1)c(-c1cccc(Cl)c1)cc(=O)n2C [tipifarnib]
Outline: as §1

mubritinib = compound: FC(F)(F)c1ccc(/C=C/c2nc(COc3ccc(CCCCn4ccnn4)cc3)co2)cc1 [mubritinib]
Outline: as §1

Measured: log2 fold change

COX19 (UniProt Q49B96)
inactive: [1] -0.009 | crizotinib 0.164 | [2] 0.053 | [3] 0.036 | duvelisib 0.176 | gandotinib -0.09 | tozasertib -0.016 | [4] -0.086 | doramapimod 0.038 | ispinesib 0.003 | bafetinib -0.049 | [5] -0.001 | nilotinib 0.009 | [6] -0.01 | dasatinib -0.001 | [7] 0 | [8] 0.024 | [9] 0.039 | tipifarnib -0.01 | mubritinib 0.044

CPNE1 (UniProt Q99829)
inactive: [1] 0.055 | crizotinib 0.009 | [2] 0.069 | [3] -0.056 | duvelisib -0.027 | gandotinib -0.011 | tozasertib -0.001 | [4] -0.12 | doramapimod -0.028 | ispinesib 0.03 | bafetinib -0.004 | [5] 0.029 | nilotinib 0.016 | [6] 0.019 | dasatinib 0.026 | [7] 0.034 | [8] 0.032 | [9] 0.003 | tipifarnib 0.005 | mubritinib 0.067

CORO1C isoform 3 (UniProt Q9ULV4)
inactive: [1] -0.075 | crizotinib 0.089 | [2] -0.053 | [3] -0.098 | duvelisib -0.026 | gandotinib 0 | tozasertib 0.069 | [4] 0.005 | doramapimod -0.008 | ispinesib 0.161 | bafetinib 0.007 | [5] 0.05 | nilotinib 0.038 | [6] -0.06 | dasatinib 0.043 | [7] 0.073 | [8] 0.034 | [9] -0.046 | tipifarnib 0.003 | mubritinib 0.004

COLGALT2 (UniProt Q8IYK4)
inactive: [1] 0.024 | crizotinib 0.046 | [2] -0.052 | [3] 0.152 | duvelisib -0.074 | gandotinib 0.042 | tozasertib 0.019 | [4] 0.049 | doramapimod 0.065 | ispinesib -0.034 | bafetinib 0.078 | [5] 0 | nilotinib -0.013 | [6] 0.052 | dasatinib 0.017 | [7] -0.07 | [8] -0.089 | [9] -0.009 | tipifarnib 0.114 | mubritinib -0.15

Taken from the results shown (2 entries):
COX19 (UniProt Q49B96)
inactive: [1] -0.009 | crizotinib 0.164 | [2] 0.053 | [3] 0.036 | duvelisib 0.176 | gandotinib -0.09 | tozasertib -0.016 | [4] -0.086 | doramapimod 0.038 | ispinesib 0.003 | bafetinib -0.049 | [5] -0.001 | nilotinib 0.009 | [6] -0.01 | dasatinib -0.001 | [7] 0 | [8] 0.024 | [9] 0.039 | tipifarnib -0.01 | mubritinib 0.044

CPNE1 (UniProt Q99829)
inactive: [1] 0.055 | crizotinib 0.009 | [2] 0.069 | [3] -0.056 | duvelisib -0.027 | gandotinib -0.011 | tozasertib -0.001 | [4] -0.12 | doramapimod -0.028 | ispinesib 0.03 | bafetinib -0.004 | [5] 0.029 | nilotinib 0.016 | [6] 0.019 | dasatinib 0.026 | [7] 0.034 | [8] 0.032 | [9] 0.003 | tipifarnib 0.005 | mubritinib 0.067

More records.

COTL1 (UniProt Q14019)
inactive: [1] 0.033 | crizotinib -0.001 | [2] 0.064 | [3] -0.114 | duvelisib -0.009 | gandotinib -0.089 | tozasertib 0.053 | [4] -0.025 | doramapimod 0.012 | ispinesib 0.109 | bafetinib -0.001 | [5] 0.035 | nilotinib -0.004 | [6] -0.033 | dasatinib 0.003 | [7] -0.001 | [8] -0.009 | [9] 0.014 | tipifarnib -0.072 | mubritinib 0.044

COMMD8 (UniProt Q9NX08)
inactive: [1] 0.041 | crizotinib 0.01 | [2] 0.127 | [3] 0.03 | duvelisib 0.035 | gandotinib -0.002 | tozasertib 0.071 | [4] 0.172 | doramapimod -0.006 | ispinesib 0.037 | bafetinib 0.054 | [5] 0.041 | nilotinib -0.014 | [6] -0.094 | dasatinib -0.005 | [7] 0.081 | [8] 0.028 | [9] -0.027 | tipifarnib -0.04 | mubritinib 0.006

COMMD2 (UniProt Q86X83)
inactive: [1] -0.048 | crizotinib -0.13 | [2] 0.102 | [3] 0.037 | gandotinib -0.029 | [4] -0.018 | doramapimod -0.012 | ispinesib 0.014 | bafetinib 0.162 | [5] -0.066 | nilotinib -0.132 | [6] -0.069 | dasatinib -0.177 | [7] 0.097 | [8] -0.099 | [9] 0.057 | tipifarnib 0.025 | mubritinib 0.101

COMMD10 (UniProt Q9Y6G5)
inactive: [1] 0.034 | crizotinib -0.039 | [2] 0.04 | [3] -0.15 | duvelisib 0.052 | gandotinib 0.15 | tozasertib 0.067 | [4] -0.005 | doramapimod 0.061 | ispinesib 0.054 | bafetinib -0.018 | [5] 0.078 | nilotinib 0.007 | [6] -0.005 | dasatinib -0.021 | [7] 0.002 | [8] 0.113 | [9] -0.061 | tipifarnib -0.064 | mubritinib 0.089

COX11 (UniProt Q9Y6N1)
inactive: [1] 0.039 | crizotinib 0.027 | [2] 0.065 | [3] -0.09 | duvelisib 0.119 | gandotinib -0.054 | tozasertib -0.012 | [4] -0.047 | doramapimod -0.106 | ispinesib -0.133 | bafetinib -0.011 | [5] -0.027 | nilotinib 0.008 | [6] -0.038 | dasatinib -0.098 | [7] 0.022 | [8] 0.064 | [9] -0.125 | tipifarnib 0.025 | mubritinib 0.026

CROCC (UniProt Q5TZA2)
inactive: [1] 0.053 | crizotinib 0.176 | [2] 0.061 | [3] 0.033 | duvelisib 0.035 | gandotinib -0.076 | tozasertib 0.016 | [4] 0.005 | doramapimod 0.03 | ispinesib 0.011 | bafetinib -0.041 | [5] 0.007 | nilotinib -0.052 | [6] 0.006 | dasatinib -0.001 | [7] 0.005 | [8] -0.004 | [9] 0.009 | tipifarnib -0.001 | mubritinib 0.106

COX15 (UniProt Q7KZN9)
inactive: [1] -0.008 | crizotinib -0.015 | [2] 0.041 | [3] 0.006 | gandotinib -0.07 | [4] -0.033 | doramapimod -0.023 | ispinesib -0.016 | bafetinib 0.09 | [5] -0.02 | nilotinib -0.013 | [6] 0.02 | dasatinib 0.078 | [7] -0.034 | [8] 0.008 | [9] -0.023 | tipifarnib 0.046 | mubritinib 0.038

CRLF3 (UniProt Q8IUI8)
inactive: [1] 0.053 | crizotinib -0.015 | [2] 0.048 | [3] 0.017 | gandotinib 0.016 | [4] 0.019 | doramapimod 0.138 | ispinesib -0.059 | bafetinib -0.032 | [5] -0.045 | nilotinib -0.043 | [6] -0.117 | dasatinib -0.145 | [7] 0.011 | [8] 0.025 | [9] 0.024 | tipifarnib -0.018 | mubritinib 0.032

COPS2 (UniProt P61201)
inactive: [1] 0.016 | crizotinib 0.018 | [2] 0.098 | [3] -0.063 | duvelisib -0.014 | gandotinib -0.003 | tozasertib 0.015 | [4] 0.033 | doramapimod -0.024 | ispinesib 0.075 | bafetinib -0.012 | [5] 0.051 | nilotinib -0.003 | [6] -0.03 | dasatinib -0.068 | [7] -0.006 | [8] 0.024 | [9] 0.014 | tipifarnib -0.025 | mubritinib 0.034

CPT1A (UniProt P50416)
inactive: [1] 0.043 | [2] 0.02 | [3] 0.047 | gandotinib 0.211 | [4] 0.079 | doramapimod 0.012 | ispinesib 0.322 | bafetinib 0.171 | [5] 0.006 | nilotinib 0.058 | [6] 0.021 | dasatinib -0.042 | [7] -0.107 | [8] -0.024 | [9] -0.036 | tipifarnib 0.187 | mubritinib -0.05
active: crizotinib 0.546

CSNK2A1 (UniProt P68400)
inactive: [1] 0.055 | crizotinib -0.04 | [2] 0.016 | [3] -0.17 | gandotinib 0.043 | [4] 0.005 | doramapimod -0.022 | ispinesib 0.029 | bafetinib -0.02 | [5] -0.073 | nilotinib 0.032 | [6] 0.019 | dasatinib -0.03 | [7] -0.055 | [8] -0.019 | [9] 0.035 | tipifarnib 0.03 | mubritinib -0.019

CRYZ (UniProt Q08257)
inactive: [1] 0.047 | crizotinib 0.007 | [2] 0.033 | [3] -0.053 | duvelisib 0.051 | gandotinib -0.028 | tozasertib 0.002 | [4] -0.001 | doramapimod -0.063 | ispinesib 0.042 | bafetinib -0.044 | [5] -0.052 | nilotinib 0.002 | [6] 0.004 | dasatinib 0.033 | [7] -0.012 | [8] 0.037 | [9] -0.01 | tipifarnib -0.037 | mubritinib -0.018
